Source: patent US6417182B1, “Pharmaceutical compositions comprising metal complexes” (AnorMED Inc., priority 1993, dated 2002)
Several values for one entry are separate records, joined by “and”; a condition that tells them apart may be missing. Equal entries are not always repeated.

Test: in vitro NO uptake test (manometric pressure decrease; IR spectrum of freeze-dried product)
Conditions: freeze-dried reaction solution after in vitro NO test
Procedure: The resulting solution was placed in a three-necked pear-shaped flask and stirred by a magnetic stirrer at constant speed of 1000 rpm, at a constant temperature in the range 20° C.-24° C. A manometer was attached to the flask, and purified, dried nitric oxide gas (known volume in the range 3-5 cm^3) was introduced via a septum, using a gas syringe, at atmospheric pressure into the headspace above the reaction solution. The pressure within the flask was recorded periodically over a period of one hour.
A control experiment was carried out according to the above but without any complex present.
On completion of each in vitro test, the reaction solution was freeze-dried. An infrared spectrum of the freeze-dried product provided information on metal-NO bond formation.

| Compound | IR spectrum peak indicating the presence of a metal—NO bond |
| --- | --- |
| O.O=C([O-])CN(CCN(CC(=O)[O-])CC(=O)O)CC(=O)O.[Cl-].[Cl-].[K+].[Ru+3] [Example 6, K[Ru(H2edta)Cl2]H2O] | 1896 cm⁻¹ |
| CS(C)=O.CS(C)=O.N.[Cl-].[Cl-].[Cl-].[Ru+3] [Example 20, [RuCl3(dmso)2(NH3)]] | 1889 cm⁻¹ |
| CC#N.CC#N.CC(=O)C=C(C)[O-].CC(=O)C=C(C)[O-].O=S(=O)([O-])C(F)(F)F.[Ru+3] [Example 27, [Ru(acac)2(MeCN)2]CF3SO3] | 1899 cm⁻¹ |
| O.O=C([O-])C(=O)[O-].[Os+2].c1ccc(-c2ccccn2)nc1.c1ccc(-c2ccccn2)nc1 [Example 29, [Os(ox)(bipy)2].H2O] | 1894 cm⁻¹ |
| CC(=O)[O-].CC(=O)[O-].CC(=O)[O-].CC(=O)[O-].[Cl-].[Ru+3].[Ru+3] [Example 14, [Ru2(OAc)4]Cl] | 1895 cm⁻¹ |
| O.O.O=C([O-])CN(CCN(CC(=O)[O-])CC(=O)O)CC(=O)[O-].[Cl-].[K+].[Ru+3] [Example 1, K[Ru(Hedta)Cl]2H2O] | 1897 cm⁻¹ |
| [Ru3O(lac)6](lac) [Example 9] | 1884 cm⁻¹ |
| CCC(=O)[O-].CCC(=O)[O-].CCC(=O)[O-].CCC(=O)[O-].O=[N+]([O-])[O-].[Ru+3].[Ru+3] [Example 12, [Ru2(OCOEt)4]NO3] | 1891 cm⁻¹ |
| N.N.N.N.N.N.[Cl-].[Cl-].[Cl-].[Ru+3] [Example 21, [Ru(NH3)6]Cl3] | 1910 cm⁻¹ |
| O.O=C(O)c1cccc[nH+]1.O=C(O)c1ccccn1.O=C([O-])c1ccccn1.O=C([O-])c1ccccn1.[Cl-].[Cl-].[Ru+3] [Example 5, (H2pic)[RuCl2(pic)2](Hpic)H2O] | 1888 cm⁻¹ |
| S=C([S-])N1CCOCC1.S=C([S-])N1CCOCC1.S=C([S-])N1CCOCC1.[Ru+3] [Example 25, [Ru(mtc)3]] | 1862 cm⁻¹ |
| O.O=C([O-])CN(CCN(CC(=O)[O-])CC(=O)O)CCN(CC(=O)[O-])CC(=O)O.[Cl-].[K+].[Ru+3] [Example 8, K[Ru(H2dtpa)Cl]H2O] | 1905 cm⁻¹ |
| O.O=C([O-])c1cccc(C(=O)[O-])n1.O=C([O-])c1cccc(C(=O)[O-])n1.[K+].[Ru+3] [Example 4, K[Ru(dipic)2]H2O] | 1915 cm⁻¹ |
| CC(=O)[O-].CC(=O)[O-].CC(=O)[O-].CC(=O)[O-].CC(=O)[O-].CC(=O)[O-].CC(=O)[O-].[O-2].[Ru+3].[Ru+3].[Ru+3] [Example 10, [Ru3O(OAc)6](OAc)] | 1877 cm⁻¹ |
| CS(C)=O.CS(C)=O.CS(C)=O.CS(C)=O.[Cl][Ru][Cl] [Example 22, cis-[RuCl2(dmso)4]] | 1881 cm⁻¹ |
| Cc1occc(=O)c1[O-].Cc1occc(=O)c1[O-].Cc1occc(=O)c1[O-].[Ru+3] [Example 26, [Ru(maltol)3]] | 1866 cm⁻¹ |
| O.O=C([O-])CN(CC(=O)[O-])CC(=O)O.O=C([O-])CN(CC(=O)[O-])CC(=O)O.O=C([O-])CN(CC(=O)[O-])CC(=O)O.O=C([O-])CN(CC(=O)[O-])CC(=O)O.[K+].[K+].[Ru+3].[Ru+3] [Example 7, K[Ru(Hnta)2]½H2O] | 1889 cm⁻¹ |
| CS(C)=O.CS(C)=O.CS(C)=O.N.[Cl-].[Cl-].[Ru+2] [Example 23, cis-[RuCl2(dmso)3(NH3)]] | 1893 cm⁻¹ |
| O.[Cl-].[Cl-].[Cl-].[Cl-].[K+].[Ru+3].c1cnc2c(c1)ccc1cccnc12 [Example 17, K[RuCl4(phen)]H2O] | 1904 cm⁻¹ |
| O.O=C([O-])CN(CCO)CCN(CC(=O)[O-])CC(=O)[O-].[Cl-].[K+].[Ru+3] [Example 3, K[Ru(hedtra)Cl]H2O] | 1889 cm⁻¹ |
| CC(=O)C=C(C)[O-].O=C([O-])CN(CCN(CC(=O)[O-])CC(=O)O)CC(=O)O.[Ru+3] [Example 2, [Ru(H2edta)(acac)]] | 1896 cm⁻¹ |
| CC(=O)[O-].CC(=O)[O-].CC(=O)[O-].CC(=O)[O-].O=[N+]([O-])[O-].[Ru+2].[Ru+3] [Example 11, [Ru2(OAc)4]NO3] | 1891 cm⁻¹ |
| O=C([O-])C(=O)[O-].O=C([O-])C(=O)[O-].O=C([O-])C(=O)[O-].[K+].[K+].[K+].[Ru+3] [Example 13, K3[Ru(ox)3]] | 1889 cm⁻¹ |
| NCCN.NCCN.NCCN.[I-].[I-].[I-].[Ru+3] [Example 16, [Ru(en)3]I3] | 1906 cm⁻¹ |
| [Ru(NH3)5Cl]Cl2 [Example 15] | 1909 cm⁻¹ and 1928 cm⁻¹ |
| CS(C)=O.CS(C)=O.CS(C)=O.[Cl-].[Cl-].[Cl-].[Ru+3] [Example 24, [RuCl3(dmso)3]] | 1880 cm⁻¹ |
| [Cl-].[Cl-].[Cl-].[Cl-].[K+].[Ru+3].c1ccc(-c2ccccn2)nc1 [Example 19, K[RuCl4(bipy)]] | 1885 cm⁻¹ |
| O.[Cl-].[Cl-].[Cl][Ru]([Cl])[Cl].[K+].[K+] [Example 28, K2[RuCl5(H2O)]] | 1903 cm⁻¹ |
